Assay [1] addresses T1, gD epitope-tagged cynomolgus monkey LgR5 expressed on stably transfected 293 cells (cynomolgus monkey).
T1 sequence: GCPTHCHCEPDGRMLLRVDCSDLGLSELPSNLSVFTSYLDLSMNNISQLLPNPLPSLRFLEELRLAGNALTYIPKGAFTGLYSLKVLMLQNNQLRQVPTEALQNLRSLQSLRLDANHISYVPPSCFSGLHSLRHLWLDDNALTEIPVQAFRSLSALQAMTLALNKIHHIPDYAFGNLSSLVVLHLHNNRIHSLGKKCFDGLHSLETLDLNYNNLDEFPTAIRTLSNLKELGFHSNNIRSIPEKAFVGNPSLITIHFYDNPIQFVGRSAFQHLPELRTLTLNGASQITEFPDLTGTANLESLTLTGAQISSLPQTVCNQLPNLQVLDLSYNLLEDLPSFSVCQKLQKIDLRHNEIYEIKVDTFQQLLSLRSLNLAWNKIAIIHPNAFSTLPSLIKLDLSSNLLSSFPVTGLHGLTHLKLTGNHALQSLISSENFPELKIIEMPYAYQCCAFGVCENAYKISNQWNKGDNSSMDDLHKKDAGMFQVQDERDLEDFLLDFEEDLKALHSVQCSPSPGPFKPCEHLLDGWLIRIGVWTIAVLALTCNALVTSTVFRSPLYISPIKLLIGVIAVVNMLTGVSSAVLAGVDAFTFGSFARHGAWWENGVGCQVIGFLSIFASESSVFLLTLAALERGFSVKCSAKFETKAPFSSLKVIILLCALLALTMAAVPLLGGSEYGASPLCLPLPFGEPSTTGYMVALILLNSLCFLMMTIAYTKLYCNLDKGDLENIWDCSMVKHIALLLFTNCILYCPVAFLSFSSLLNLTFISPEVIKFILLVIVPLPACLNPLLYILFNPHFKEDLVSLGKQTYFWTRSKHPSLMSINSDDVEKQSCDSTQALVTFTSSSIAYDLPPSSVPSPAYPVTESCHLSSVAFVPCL
The assay is described as follows: FACS on stably transfected 293 cells, 10 µg/ml antibody.

For assay [2] the target is unchanged. The assay is described as follows: FACS on 293 cells stably transfected with gD epitope-tagged LgR5, 10 ug/ml antibody, R-Phycoerythrin goat anti-human detection.
The target in assay [3] is T2, LgR5 endogenously expressed on LoVo colon cancer cells and D5124 pancreatic tumor cells (UniProt O75473).
T2 sequence (looked up): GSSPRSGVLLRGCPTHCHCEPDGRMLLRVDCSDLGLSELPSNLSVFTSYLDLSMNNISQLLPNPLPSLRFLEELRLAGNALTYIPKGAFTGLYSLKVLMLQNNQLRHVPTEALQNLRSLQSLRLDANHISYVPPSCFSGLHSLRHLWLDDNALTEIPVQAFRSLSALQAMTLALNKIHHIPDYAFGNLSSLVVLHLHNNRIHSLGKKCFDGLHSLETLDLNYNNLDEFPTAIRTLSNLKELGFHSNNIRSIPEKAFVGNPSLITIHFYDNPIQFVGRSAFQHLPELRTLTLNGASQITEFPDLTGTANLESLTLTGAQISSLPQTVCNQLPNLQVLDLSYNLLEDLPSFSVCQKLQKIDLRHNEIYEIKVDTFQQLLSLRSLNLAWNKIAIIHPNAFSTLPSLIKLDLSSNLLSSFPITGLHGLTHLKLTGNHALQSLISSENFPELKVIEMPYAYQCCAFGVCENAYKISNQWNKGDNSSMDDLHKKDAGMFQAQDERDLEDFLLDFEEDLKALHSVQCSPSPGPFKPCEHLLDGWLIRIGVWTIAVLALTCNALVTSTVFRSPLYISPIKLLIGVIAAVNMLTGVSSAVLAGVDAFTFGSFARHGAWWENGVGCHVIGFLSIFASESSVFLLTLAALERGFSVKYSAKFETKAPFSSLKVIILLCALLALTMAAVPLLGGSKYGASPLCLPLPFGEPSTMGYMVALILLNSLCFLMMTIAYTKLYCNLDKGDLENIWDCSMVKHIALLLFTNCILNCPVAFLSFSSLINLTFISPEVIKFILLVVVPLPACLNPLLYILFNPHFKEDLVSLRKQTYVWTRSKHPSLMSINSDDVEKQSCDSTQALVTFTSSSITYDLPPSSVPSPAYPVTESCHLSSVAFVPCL
As to the kind of experiment: FACS on D5124 tumor cells.

Assay [4] concerns the target T2, LgR5 endogenously expressed on LoVo colon cancer cells and D5124 pancreatic tumor cells. The assay is described as follows: FACS on LoVo cells.
The target in assay [5] is T3, Human LgR5 ECD (amino acids 22-555) with an N-terminal FLAG, expressed in CHO cells (human) (UniProt O75473).
T3 sequence (looked up): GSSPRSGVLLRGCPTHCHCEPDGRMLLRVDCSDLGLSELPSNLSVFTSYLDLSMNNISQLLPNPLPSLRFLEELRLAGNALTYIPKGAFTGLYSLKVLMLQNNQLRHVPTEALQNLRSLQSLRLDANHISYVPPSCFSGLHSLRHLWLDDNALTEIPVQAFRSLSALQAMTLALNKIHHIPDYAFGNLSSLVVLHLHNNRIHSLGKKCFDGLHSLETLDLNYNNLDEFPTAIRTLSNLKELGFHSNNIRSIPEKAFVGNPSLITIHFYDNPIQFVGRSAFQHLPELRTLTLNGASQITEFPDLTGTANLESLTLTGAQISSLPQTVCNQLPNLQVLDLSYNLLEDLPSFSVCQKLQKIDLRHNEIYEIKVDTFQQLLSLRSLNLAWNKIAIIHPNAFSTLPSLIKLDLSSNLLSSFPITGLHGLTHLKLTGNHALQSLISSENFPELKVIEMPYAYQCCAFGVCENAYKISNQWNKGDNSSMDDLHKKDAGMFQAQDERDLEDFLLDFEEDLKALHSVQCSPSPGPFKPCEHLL
The assay is described as follows: phage ELISA, plate-coated LgR5 ECD.

No constants are given. Whether binding was seen depends on the method and setting. Some results given as binding are weak or reduced against the parent protein; the word gives no strength. For some of these results: Tags and fused reporters may be left off the sequences shown.

B1: chimeric monoclonal antibody 8E11 (antibody, human IgG1, V domains shown)
VH: QVQLQQSGTELMKPGASVKISCKATGYTFSAYWIEWIKQRPGHGLEWIGEILPGSDSTDYNEKFKVKATFSSDTSSNTVYIQLNSLTYEDSAVYYCARGGHYGSLDYWGQGTTLKVSS
VL: NIVLTQSPASLAVSLGQRATISCRASESVDNYGNSFMHWYQQKPGQPPKLLIYLASNLESGVPARFSGSGSRTDFTLTIDPVEADDAATYYCQQNYEDPFTFGSGTKVEIKR
notes: also called ch8E11; chimeric 8E11
As to B1, the binding result in assay [1] and in assay [2] was “binds” each time.

B2: mouse monoclonal antibody 8E11 (antibody, mouse IgG1, V domains shown)
VH: B1 VH
VL: B1 VL
B2: the binding entry in assay [3] is recorded as “binds”.

B3: humanized monoclonal antibody 8E11.v2 (antibody, human IgG1, kappa, V domains shown)
VH: EVQLVQSGAEVKKPGASVKVSCKASGYTFSAYWIEWVRQAPGQGLEWIGEILPGSDSTDYNEKFKVRATFTSDTSTSTVYLELSSLRSEDTAVYYCARGGHYGSLDYWGQGTLVTVSS
VL: DIVMTQSPDSLAVSLGERATINCRASESVDNYGNSFMHWYQQKPGQPPKLLIYLASNLESGVPDRFSGSGSGTDFTLTISSLQAEDVAVYYCQQNYEDPFTFGQGTKVEIKR
notes: It was assessed as an IgG; also called hu8E11.v2; hu8E11v2
In the case of B3, the binding result in assay [1] and in assay [2] was “binds” each time.

B4: human antibody YW353 (antibody, human IgG1, kappa, V domains shown)
VH: EVQLVESGGGLVQPGGSLRLSCAASGFTFTSYSISWVRQAPGKGLEWVAEIYPPGGYTDYADSVKGRFTISADTSKNTAYLQMNSLRAEDTAVYYCAKARLFFDYWGQGTLVTVSS
VL: DIQMTQSPSSLSASVGDRVTITCRASQDVSTAVAWYQQKPGKAPKLLIYSASFLYSGVPSRFSGSGSGTDFTLTISSLQPEDFATYYCQQSYTTPPTFGQGTKVEIKR
notes: also called huYW353
For B4, the binding entry in assay [3], in assay [1], in assay [4] and in assay [2] was “binds” in each case.

B5: YW353 phage-displayed Fab (clone from the human synthetic phage antibody library, before reformatting to IgG) (Fab, V domains shown)
VH: B4 VH
VL: B4 VL
For B5, in assay [5], the binding entry was “binds”.

The values above are taken from patent publication US20130336885A1 (Genentech, published 2013).
